The source of these data is patent US20090143724A1, “Microprojection Array Immunization Patch and Method” (Alza Corporation, priority 2001, published 2009).

Data set [1] in a line: Amount of OVA coated on microprojection arrays by immersion (FITC-OVA extraction, luminescence spectrometry). The following applies: FITC-labeled ovalbumin, 2 cm^2 array, mean ± SEM.
Data set [2] in a line: Example 2: amount coated on tip-coated microprojection arrays (fluorimetry / total protein assay). The following applies: for Amount coated on the array: 20 wt % FITC-ovalbumin, tip coating, 2 cm^2 array.

B1: ovalbumin (protein, UniProt P01012 2-386, looked up)
Ovalbumin: GSIGAASMEFCFDVFKELKVHHANENIFYCPIAIMSALAMVYLGAKDSTRTQINKVVRFDKLPGFGDSIEAQCGTSVNVHSSLRDILNQITKPNDVYSFSLASRLYAEERYPILPEYLQCVKELYRGGLEPINFQTAADQARELINSWVESQTNGIIRNVLQPSSVDSQTAMVLVNAIVFKGLWEKAFKDEDTQAMPFRVTEQESKPVQMMYQIGLFRVASMASEKMKILELPFASGTMSMLVLLPDEVSGLEQLESIINFEKLTEWTSSNVMEERKIKVYLPRMKMEEKYNLTSVLMAMGITDVFSSSANLSGISSAESLKISQAVHAAHAEINEAGREVVGSAEAGVDAASVSEEFRADHPFLFCIKHIATNAVLFFGRCVSP
modifications: FITC label (in one form)
notes: model protein antigen (Grade V, SIGMA); FITC-labeled form used for coating and delivery quantitation
Regarding B1, the “Amount of ovalbumin coated on microprojection array” value is “approximately 7 μg/cm^2” in data set [1] (1% ovalbumin coating concentration); 7.4 ± 0.6 μg/cm^2 in data set [1] (1% ovalbumin coating concentration, listed as Ovalbumin); “about 40 μg/cm^2” in data set [1] (5% ovalbumin coating concentration); 42.2 ± 1.9 μg/cm^2 in data set [1] (5% ovalbumin coating concentration, listed as Ovalbumin); “about 240 μg/cm^2” in data set [1] (20% ovalbumin coating concentration); 238 ± 20 μg/cm^2 in data set [1] (20% ovalbumin coating concentration, listed as Ovalbumin). Besides, the “Amount coated on the array” value in data set [2] (1 coating) is 1.8 µg; in data set [2] (2 coatings), 3.7 µg; in data set [2] (4 coatings) it was 4.3 µg. For the same molecule, in data set [2] (coating solution 2 wt % ovalbumin and 10 wt % GMDP, eight coatings), the “Ovalbumin coated per microprojection array” value was 2.2 µg. Moreover, in data set [2] (untagged ovalbumin, 20 wt % OVA coating solution, total protein assay, target dose 5 μg), the “Amount of protein coated on the arrays” value worked out at 4.6 ± 0.5 µg.
